Some of the results follow. Hit calls seldom repeat between salt and free forms of one compound.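 In K562 cells expressing nanoluciferase-fused kinases, luminescence was recorded at 4 h intervals between 2 and 18 h, normalized as percent of control with DMSO at 100% and a positive control at 0%. A significant (2 sigma) signal drop marks a time point as decreased. The authors' rule for a hit is not shown and takes in more than the number of time points.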
Legend:
Test in all cases: number of time points (of 5) at which kinase-Nluc abundance scored as decreased, DMSO-normalised (count); higher = more persistent destabilization
Conditions in all cases: K562; 2-18 h
EGFR_L861Q = EGFR_L861Q (UniProt P00533)
EGFR_T790M = EGFR_T790M (UniProt P00533)
EPHA2 = EPHA2 (UniProt P29317)
ERBB3 = ERBB3 (UniProt P21860)
[1] = molecular target: ERBB4_R711C (clone: ERBB4_mut) (UniProt Q15303)
ERN1 = ERN1 (UniProt O75460)
FGFR1 = FGFR1 (UniProt P11362)
FGFR2 = FGFR2 (UniProt P21802)
FGFR3 = FGFR3 (UniProt P22607)
FGR = FGR (UniProt P09769)
FLT3 = FLT3 (UniProt P36888)
FYN = FYN (UniProt P06241)
GSK3A = GSK3A (UniProt P49840)
HER2 = HER2 (UniProt P04626)
INSRR = INSRR (UniProt P14616)
IRAK3 = IRAK3 (UniProt Q9Y616)
JAK1 = JAK1 (UniProt P23458)
LCK = LCK (UniProt P06239)
LIMK1 = LIMK1 (UniProt P53667)
LIMK2 = LIMK2 (UniProt P53671)

Protein sequences, listed by entry. Tags and fused reporters are not part of them. Lines headed by an entry give the natural chain unless they say otherwise; changes in a name come on top.
UniProt P29317, whole entry: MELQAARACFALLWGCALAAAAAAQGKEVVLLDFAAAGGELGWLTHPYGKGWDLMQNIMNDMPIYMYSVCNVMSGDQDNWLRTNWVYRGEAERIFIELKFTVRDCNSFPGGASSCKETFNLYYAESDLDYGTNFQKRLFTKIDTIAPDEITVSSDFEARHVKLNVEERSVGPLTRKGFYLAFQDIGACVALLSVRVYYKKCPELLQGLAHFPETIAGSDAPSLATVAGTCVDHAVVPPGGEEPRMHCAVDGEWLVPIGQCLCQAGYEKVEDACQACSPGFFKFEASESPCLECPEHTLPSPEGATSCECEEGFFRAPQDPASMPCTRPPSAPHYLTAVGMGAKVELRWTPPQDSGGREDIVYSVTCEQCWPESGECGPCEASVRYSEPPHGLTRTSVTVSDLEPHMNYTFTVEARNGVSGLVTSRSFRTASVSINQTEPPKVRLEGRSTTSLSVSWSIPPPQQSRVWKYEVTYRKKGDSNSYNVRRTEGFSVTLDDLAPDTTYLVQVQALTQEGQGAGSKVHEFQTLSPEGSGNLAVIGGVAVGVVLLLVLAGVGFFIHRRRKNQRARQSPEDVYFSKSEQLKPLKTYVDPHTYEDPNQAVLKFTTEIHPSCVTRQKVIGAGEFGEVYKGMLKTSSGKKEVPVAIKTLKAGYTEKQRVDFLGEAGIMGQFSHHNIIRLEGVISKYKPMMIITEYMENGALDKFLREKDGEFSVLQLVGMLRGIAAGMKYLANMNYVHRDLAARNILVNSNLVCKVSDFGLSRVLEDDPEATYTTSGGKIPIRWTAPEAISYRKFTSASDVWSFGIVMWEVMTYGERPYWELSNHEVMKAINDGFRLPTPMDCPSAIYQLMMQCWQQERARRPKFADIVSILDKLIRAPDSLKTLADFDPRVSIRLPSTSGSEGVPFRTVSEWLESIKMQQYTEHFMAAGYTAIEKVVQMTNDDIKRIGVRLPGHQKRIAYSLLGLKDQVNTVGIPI
UniProt O75460: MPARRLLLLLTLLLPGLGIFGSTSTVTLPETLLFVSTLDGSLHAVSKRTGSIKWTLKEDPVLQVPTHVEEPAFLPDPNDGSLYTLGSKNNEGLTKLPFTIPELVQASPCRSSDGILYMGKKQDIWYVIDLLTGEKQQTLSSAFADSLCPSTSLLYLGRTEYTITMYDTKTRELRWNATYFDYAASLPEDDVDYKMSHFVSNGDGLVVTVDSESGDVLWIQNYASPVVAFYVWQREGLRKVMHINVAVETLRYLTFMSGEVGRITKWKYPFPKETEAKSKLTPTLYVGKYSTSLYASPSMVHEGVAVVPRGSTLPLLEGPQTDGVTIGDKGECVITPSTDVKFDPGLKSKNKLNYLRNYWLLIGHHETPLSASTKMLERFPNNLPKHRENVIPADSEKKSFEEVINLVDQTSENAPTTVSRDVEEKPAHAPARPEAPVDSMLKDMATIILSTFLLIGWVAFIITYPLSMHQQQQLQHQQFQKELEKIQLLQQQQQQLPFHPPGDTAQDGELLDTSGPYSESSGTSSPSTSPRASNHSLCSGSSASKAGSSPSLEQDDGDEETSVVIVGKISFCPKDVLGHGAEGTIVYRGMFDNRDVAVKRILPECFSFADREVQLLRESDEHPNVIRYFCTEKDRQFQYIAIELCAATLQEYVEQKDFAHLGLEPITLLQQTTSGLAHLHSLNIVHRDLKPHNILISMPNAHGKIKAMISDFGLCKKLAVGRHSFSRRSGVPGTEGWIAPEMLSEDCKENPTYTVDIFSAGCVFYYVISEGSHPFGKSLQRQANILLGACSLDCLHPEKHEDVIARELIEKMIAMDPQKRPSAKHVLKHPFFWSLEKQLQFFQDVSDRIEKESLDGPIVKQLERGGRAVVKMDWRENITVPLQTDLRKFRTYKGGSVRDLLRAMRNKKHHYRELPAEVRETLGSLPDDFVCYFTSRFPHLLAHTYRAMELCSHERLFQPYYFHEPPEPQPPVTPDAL
UniProt P11362, whole entry, looked up: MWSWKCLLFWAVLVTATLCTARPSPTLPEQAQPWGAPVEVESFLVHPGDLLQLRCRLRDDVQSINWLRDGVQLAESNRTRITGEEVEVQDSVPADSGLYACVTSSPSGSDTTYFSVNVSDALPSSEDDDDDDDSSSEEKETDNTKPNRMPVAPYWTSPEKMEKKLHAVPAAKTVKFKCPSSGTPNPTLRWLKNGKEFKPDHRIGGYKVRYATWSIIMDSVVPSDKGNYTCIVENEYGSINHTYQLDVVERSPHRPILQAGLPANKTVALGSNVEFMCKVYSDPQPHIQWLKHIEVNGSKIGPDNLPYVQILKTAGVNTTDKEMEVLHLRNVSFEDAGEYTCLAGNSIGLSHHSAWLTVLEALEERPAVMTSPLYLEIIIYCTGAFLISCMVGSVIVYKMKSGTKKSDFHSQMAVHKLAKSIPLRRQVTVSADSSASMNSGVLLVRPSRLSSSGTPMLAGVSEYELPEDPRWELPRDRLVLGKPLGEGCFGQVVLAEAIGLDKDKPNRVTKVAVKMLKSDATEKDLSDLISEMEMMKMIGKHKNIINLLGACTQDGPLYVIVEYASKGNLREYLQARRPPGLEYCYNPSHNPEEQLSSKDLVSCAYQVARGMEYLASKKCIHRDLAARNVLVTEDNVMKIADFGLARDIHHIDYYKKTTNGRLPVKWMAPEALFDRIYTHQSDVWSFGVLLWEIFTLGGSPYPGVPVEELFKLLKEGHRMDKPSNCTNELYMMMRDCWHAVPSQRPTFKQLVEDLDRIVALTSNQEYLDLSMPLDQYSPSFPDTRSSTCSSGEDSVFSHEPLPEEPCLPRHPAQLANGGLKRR
UniProt P21802, whole entry, looked up: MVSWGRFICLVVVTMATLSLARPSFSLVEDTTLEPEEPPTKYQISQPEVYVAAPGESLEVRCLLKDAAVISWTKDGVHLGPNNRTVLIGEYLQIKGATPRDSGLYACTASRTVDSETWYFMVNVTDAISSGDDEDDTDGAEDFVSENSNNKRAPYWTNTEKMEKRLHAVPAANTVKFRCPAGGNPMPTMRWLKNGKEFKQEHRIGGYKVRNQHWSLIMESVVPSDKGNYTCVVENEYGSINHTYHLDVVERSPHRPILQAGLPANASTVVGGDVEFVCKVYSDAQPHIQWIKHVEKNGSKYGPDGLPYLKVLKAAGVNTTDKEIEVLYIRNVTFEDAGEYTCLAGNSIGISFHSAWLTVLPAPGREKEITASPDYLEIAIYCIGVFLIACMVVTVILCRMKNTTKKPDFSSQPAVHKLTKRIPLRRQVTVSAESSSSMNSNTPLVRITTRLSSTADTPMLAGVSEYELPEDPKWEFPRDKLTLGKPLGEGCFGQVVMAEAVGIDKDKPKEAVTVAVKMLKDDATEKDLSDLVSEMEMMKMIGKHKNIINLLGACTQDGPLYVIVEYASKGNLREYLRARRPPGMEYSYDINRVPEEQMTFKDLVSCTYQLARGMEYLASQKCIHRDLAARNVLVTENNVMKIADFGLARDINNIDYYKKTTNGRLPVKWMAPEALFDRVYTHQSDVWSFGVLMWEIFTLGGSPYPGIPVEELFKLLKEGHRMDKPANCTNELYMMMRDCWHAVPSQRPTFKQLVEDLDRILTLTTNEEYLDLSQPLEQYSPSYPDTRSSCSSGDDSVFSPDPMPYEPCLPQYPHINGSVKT
UniProt P06241, whole entry, looked up: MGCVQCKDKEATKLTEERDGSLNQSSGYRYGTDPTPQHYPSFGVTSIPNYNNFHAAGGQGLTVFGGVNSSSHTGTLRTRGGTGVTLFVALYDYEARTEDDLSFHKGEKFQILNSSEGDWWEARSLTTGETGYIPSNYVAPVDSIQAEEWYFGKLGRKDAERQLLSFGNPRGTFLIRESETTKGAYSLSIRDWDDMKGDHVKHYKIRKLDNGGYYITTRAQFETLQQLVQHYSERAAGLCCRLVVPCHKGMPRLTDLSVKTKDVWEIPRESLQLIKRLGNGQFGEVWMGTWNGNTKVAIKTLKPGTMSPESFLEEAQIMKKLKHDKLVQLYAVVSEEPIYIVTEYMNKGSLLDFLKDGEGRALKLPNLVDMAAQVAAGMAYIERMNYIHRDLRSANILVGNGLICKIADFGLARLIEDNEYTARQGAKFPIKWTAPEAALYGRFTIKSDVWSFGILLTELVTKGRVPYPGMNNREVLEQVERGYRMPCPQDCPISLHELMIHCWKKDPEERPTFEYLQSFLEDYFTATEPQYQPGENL
UniProt P23458: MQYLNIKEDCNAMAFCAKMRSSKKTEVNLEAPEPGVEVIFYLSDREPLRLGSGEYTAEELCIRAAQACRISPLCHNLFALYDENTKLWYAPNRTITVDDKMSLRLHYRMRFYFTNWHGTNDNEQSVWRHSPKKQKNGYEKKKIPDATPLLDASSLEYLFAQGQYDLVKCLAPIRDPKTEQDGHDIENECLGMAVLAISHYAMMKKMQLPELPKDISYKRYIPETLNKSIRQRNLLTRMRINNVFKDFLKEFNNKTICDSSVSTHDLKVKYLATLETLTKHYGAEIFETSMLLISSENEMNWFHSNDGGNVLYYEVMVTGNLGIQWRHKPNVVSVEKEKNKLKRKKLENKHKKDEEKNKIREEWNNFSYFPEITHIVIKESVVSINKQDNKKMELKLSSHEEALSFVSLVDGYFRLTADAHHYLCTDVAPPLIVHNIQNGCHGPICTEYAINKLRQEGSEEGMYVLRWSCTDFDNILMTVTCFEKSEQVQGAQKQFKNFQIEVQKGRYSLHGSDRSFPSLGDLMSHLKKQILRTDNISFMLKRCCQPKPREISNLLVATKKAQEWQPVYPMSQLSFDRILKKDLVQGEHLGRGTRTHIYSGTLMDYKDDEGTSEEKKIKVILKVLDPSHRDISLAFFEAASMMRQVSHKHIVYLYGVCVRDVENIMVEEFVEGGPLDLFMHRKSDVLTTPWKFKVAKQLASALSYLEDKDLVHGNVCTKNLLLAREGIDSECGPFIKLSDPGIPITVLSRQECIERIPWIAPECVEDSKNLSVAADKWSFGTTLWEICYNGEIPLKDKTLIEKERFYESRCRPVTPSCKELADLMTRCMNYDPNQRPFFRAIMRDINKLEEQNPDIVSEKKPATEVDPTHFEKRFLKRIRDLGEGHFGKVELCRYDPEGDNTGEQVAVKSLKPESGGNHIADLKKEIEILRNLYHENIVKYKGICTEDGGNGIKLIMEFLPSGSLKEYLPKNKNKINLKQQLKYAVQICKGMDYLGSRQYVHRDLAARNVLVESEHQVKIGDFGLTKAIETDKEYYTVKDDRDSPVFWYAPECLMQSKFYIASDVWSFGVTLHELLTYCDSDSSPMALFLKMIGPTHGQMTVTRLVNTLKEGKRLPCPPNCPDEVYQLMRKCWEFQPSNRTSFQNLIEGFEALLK
UniProt P06239: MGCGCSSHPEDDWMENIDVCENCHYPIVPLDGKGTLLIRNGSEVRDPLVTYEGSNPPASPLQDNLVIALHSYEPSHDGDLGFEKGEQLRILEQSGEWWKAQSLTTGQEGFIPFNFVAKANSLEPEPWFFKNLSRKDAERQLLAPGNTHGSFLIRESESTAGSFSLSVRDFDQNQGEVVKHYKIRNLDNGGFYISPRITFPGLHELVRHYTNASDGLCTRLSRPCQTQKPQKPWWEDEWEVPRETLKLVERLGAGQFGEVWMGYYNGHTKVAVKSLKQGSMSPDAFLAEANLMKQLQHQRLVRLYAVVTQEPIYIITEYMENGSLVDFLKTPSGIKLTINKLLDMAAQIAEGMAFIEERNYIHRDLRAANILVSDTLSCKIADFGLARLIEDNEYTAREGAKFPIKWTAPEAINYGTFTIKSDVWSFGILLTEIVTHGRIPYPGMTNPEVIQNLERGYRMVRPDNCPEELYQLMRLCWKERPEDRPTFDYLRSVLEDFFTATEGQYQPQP
UniProt P53671: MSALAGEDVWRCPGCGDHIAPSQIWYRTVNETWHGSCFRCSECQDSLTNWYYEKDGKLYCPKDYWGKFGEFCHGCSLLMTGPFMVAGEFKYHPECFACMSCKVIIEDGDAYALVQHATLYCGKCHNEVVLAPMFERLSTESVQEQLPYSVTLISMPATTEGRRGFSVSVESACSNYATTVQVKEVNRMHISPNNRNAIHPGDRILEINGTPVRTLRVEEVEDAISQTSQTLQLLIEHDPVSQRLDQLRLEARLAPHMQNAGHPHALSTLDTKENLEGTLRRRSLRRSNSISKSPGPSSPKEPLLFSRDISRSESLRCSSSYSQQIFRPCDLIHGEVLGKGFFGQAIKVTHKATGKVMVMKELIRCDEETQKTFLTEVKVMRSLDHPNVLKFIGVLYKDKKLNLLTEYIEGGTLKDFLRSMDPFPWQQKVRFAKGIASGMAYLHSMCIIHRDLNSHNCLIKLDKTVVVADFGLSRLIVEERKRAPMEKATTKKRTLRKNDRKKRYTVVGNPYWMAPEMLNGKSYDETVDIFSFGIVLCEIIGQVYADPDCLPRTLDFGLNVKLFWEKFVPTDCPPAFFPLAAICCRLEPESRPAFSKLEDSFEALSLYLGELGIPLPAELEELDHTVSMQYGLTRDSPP

Measured: number of time points

Cc1cc([C@H](C)Nc2ccccc2)c2oc(N3CCOCC3)cc(=O)c2c1 (10 µM)
0: EGFR_L861Q | EGFR_T790M | EPHA2 | ERBB3 | [1] | ERN1 | FGFR1 | FGFR2 | FGFR3 | FGR | FLT3 | FYN | GSK3A | HER2 | INSRR | IRAK3 | JAK1 | LCK | LIMK1 | LIMK2

O=C(/C=C/c1ccc(O[C@@H]2O[C@H](CO)[C@@H](O)[C@H](O)[C@H]2O[C@@H]2OC[C@](O)(CO)[C@H]2O)cc1)c1ccc(O)cc1O [Isoliquiritin apioside] (10 µM)
0: EGFR_L861Q | EGFR_T790M | EPHA2 | ERBB3 | [1] | ERN1 | FGFR1 | FGFR2 | FGFR3 | FGR | FLT3 | FYN | GSK3A | HER2 | INSRR | IRAK3 | JAK1 | LCK | LIMK1 | LIMK2

Cc1noc(C)c1-c1ccc(-c2cc(C(N)=O)c(NC(N)=O)s2)c(O[C@H]2CCNC2)c1 (10 µM)
0: EGFR_L861Q | EGFR_T790M | EPHA2 | ERBB3 | [1] | ERN1 | FGFR1 | FGFR2 | FGFR3 | FGR | FLT3 | FYN | GSK3A | HER2 | INSRR | IRAK3 | JAK1 | LCK | LIMK1 | LIMK2

Cn1c(=O)c(F)c(Nc2ccc(I)cc2F)c2c(=O)n(C[C@@H](O)CO)cnc21 (10 µM)
0: EGFR_L861Q | EGFR_T790M | EPHA2 | ERN1 | FGFR1 | FGFR3 | FGR | FYN | GSK3A | HER2 | IRAK3 | JAK1 | LCK | LIMK1 | LIMK2
1: ERBB3 | [1] | FLT3 | INSRR
2: FGFR2

CCn1c(=O)c(-c2ccc(-c3cncs3)cc2Cl)cc2cnc(Nc3ccc(N4CCN(C)CC4)cc3)nc21 (2.5 µM)
0: EGFR_L861Q | EGFR_T790M | EPHA2 | ERBB3 | [1] | ERN1 | FGFR1 | FGFR2 | FGFR3 | FGR | FLT3 | FYN | GSK3A | HER2 | INSRR | IRAK3 | JAK1 | LCK | LIMK1 | LIMK2

C[C@@H](c1ccc2nccn2c1)n1nnc2ncc(-c3cnn(C)c3)nc21 [Savolitinib] (10 µM)
0: EGFR_L861Q | EGFR_T790M | EPHA2 | ERBB3 | [1] | ERN1 | FGFR1 | FGFR2 | FGFR3 | FGR | FLT3 | FYN | GSK3A | HER2 | INSRR | IRAK3 | JAK1 | LCK | LIMK1 | LIMK2

N#Cc1cccc(-c2c[nH]c3ncnc(N4CCOCC4)c23)c1 (10 µM)
0: EGFR_L861Q | EGFR_T790M | EPHA2 | ERBB3 | [1] | ERN1 | FGFR1 | FGFR2 | FGFR3 | FGR | FLT3 | FYN | GSK3A | HER2 | INSRR | IRAK3 | JAK1 | LCK | LIMK1 | LIMK2

C=CC(=O)Nc1cc2c(Nc3ccc(OCc4ccccn4)c(Cl)c3)ncnc2cc1OCCN1CCOCC1 (10 µM)
5: HER2
0: EGFR_L861Q | EGFR_T790M | EPHA2 | ERN1 | FGFR1 | FGFR2 | FGFR3 | FGR | FLT3 | FYN | GSK3A | INSRR | IRAK3 | JAK1 | LCK | LIMK1 | LIMK2
1: ERBB3 | [1]

As a working copy, 2 of the compounds above:
N#Cc1cccc(-c2c[nH]c3ncnc(N4CCOCC4)c23)c1 (10 µM)
0: EGFR_L861Q | EGFR_T790M | EPHA2 | ERBB3 | [1] | ERN1 | FGFR1 | FGFR2 | FGFR3 | FGR | FLT3 | FYN | GSK3A | HER2 | INSRR | IRAK3 | JAK1 | LCK | LIMK1 | LIMK2

C=CC(=O)Nc1cc2c(Nc3ccc(OCc4ccccn4)c(Cl)c3)ncnc2cc1OCCN1CCOCC1 (10 µM)
5: HER2
0: EGFR_L861Q | EGFR_T790M | EPHA2 | ERN1 | FGFR1 | FGFR2 | FGFR3 | FGR | FLT3 | FYN | GSK3A | INSRR | IRAK3 | JAK1 | LCK | LIMK1 | LIMK2
1: ERBB3 | [1]

Next structures

COc1cccc(-n2c(=O)[nH]c3cc(Cl)n(-c4ccc(-c5cccc(OC)c5O)cc4)c3c2=O)c1 (2.5 µM)
0: EGFR_L861Q | EGFR_T790M | EPHA2 | ERBB3 | [1] | ERN1 | FGFR1 | FGFR2 | FGFR3 | FGR | FLT3 | FYN | GSK3A | HER2 | INSRR | IRAK3 | JAK1 | LCK | LIMK1 | LIMK2

CC(C)(NS(=O)(=O)c1ccc2c(Cl)cnc(N=C(N)N)c2c1)C(=O)O (10 µM)
0: EGFR_L861Q | EGFR_T790M | EPHA2 | ERBB3 | [1] | ERN1 | FGFR1 | FGFR2 | FGFR3 | FGR | FLT3 | FYN | GSK3A | HER2 | INSRR | IRAK3 | JAK1 | LCK | LIMK1 | LIMK2

Cc1cc(Nc2nc(N[C@@H](C)c3ccc(F)cc3)c(C#N)cc2F)n[nH]1 (10 µM)
5: ERBB3
4: [1]
0: EGFR_L861Q | EGFR_T790M | EPHA2 | ERN1 | FGFR1 | FGFR2 | FGFR3 | FGR | FLT3 | FYN | GSK3A | HER2 | IRAK3 | JAK1 | LCK | LIMK2
2: INSRR
1: LIMK1

C=C(C)C(=O)Nc1cccc(-c2ncnc3[nH]cc(C(=O)OCC)c23)c1 (10 µM)
0: EGFR_L861Q | EGFR_T790M | EPHA2 | ERBB3 | [1] | ERN1 | FGFR1 | FGFR2 | FGFR3 | FGR | FLT3 | FYN | GSK3A | HER2 | INSRR | IRAK3 | JAK1 | LCK | LIMK1 | LIMK2
